Assay results taken from PMC12775802, “Dual targeting of AMRC12 and Malassezia globosa disrupts MYC liquid condensates-driven nuclear pore complex biogenesis in neuroblastoma” (Theranostics, 2026).
Results are given in words; binding and its absence hold for the method and conditions named. Binding seen in cells or lysates may run through a third protein. Binding can be weak; no strength is given.

B1: armadillo repeat containing 12 (ARMC12), endogenous (protein, UniProt Q5T9G4-2 1-367)
chain: MGKSIPQYLGQLDIRKSVVSLATGAGAIYLLYKAIKAGIKCKPPLCSNSPICIARECPGPGERALPQEAPAPEASAVGGPKGLAVERERHGRDSGELRRLLNSLECKQDEYAKSMILHSITRCVYLLEAEASACTTDDIVLLGYMLDDKDNSVKTQALNTLKAFSGIRKFRLKIQEHSIKVLELISTIWDTELHIAGLRLLNNLPLPDYVHPQLRRVMPALMEILQSDYILAQVQAVRLLSYLAQKNDLLYDILNCQVHSNFLNLFQPTQSGSLLYEVLVFAERLSEGRNAPHYHVVKWHYNEQSLHESLFGEESRLADRLLALVIHPEEDVQIQACKVIVSLQYPQDLRARPSSCQPSRSYFKNTE
B2: ARMC12-VC155 (protein, UniProt Q5T9G4-2 1-367)
chain: B1 chain

Assays:
[1] = target: transcription factor MYC, endogenous (human (endogenous in SH-SY5Y, SK-N-AS)); assay: co-IP; endogenous proteins in SH-SY5Y and SK-N-AS cells, western blot; also cells treated with solvent or TCZ (20 uM), DMSO or UU-T02 (1.0 uM)
MYC-VN173 (human) = assay: split reporter; split Venus BiFC, SK-N-BE(2) cells co-transfected for 24 h, confocal microscopy

Row | Binder | binding [1] | binding (MYC-VN173 (human))
1 | B1 | binds | –
2 | B2 | – | binds
